Source: PubChem BioAssay AID1671195 (Yale University, 2021)
Screen: 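Genes whose knockdown alters LDL uptake in liver cancer cells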 (primary screen). System: human Huh7 hepatoma cells. Reagent: siRNA pool against human genes, 18 nM. Duration: about 2 to 2.5 days of knockdown, then 8 h LDL uptake. Challenge: DiI-labelled LDL at 30 µg/ml for 8 h, in lipoprotein-deficient serum medium. Detection: 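Fluorescent LDL signal imaged in cells, scaled to the plate median, robust z-score for each replicate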. Direction: robust z-score: higher = more LDL uptake after knockdown. Rule for the call: 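Active when two or more replicates show a robust z-score above 2 or below -2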.
The deposit covers about 22,000 reagents; shown is a random part of them. About 1,510 of all reagents (6.9%) were called active. 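Active includes knockdowns raising or lowering LDL uptake; positive z-scores mean more uptake, negative mean less.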

no.	gene symbol	robust z-score, replicate 1	robust z-score, replicate 2	robust z-score, replicate 3	activity call
1	KANK4	1.58	2.24	2.01	active
2	HYAL1	-0.909	-0.622	-0.773	inactive
3	RAD17	-0.65	-1.79	-0.547	inactive
4	GTPBP8	0.244	-1.22	0.177	inactive
5	RAPSN	-0.65	-1.14	-1.03	inactive
6	CHST1	-1.97	-2.11	-1.89	inactive
7	LSMEM2	-1.47	-1.59	-1.16	inactive
8	ACSS3	0.513	0.113	0.0249	inactive
9	PACRGL	1.44	0.533	0.702	inactive
10	NACC2	0.229	-0.646	-0.0743	inactive
11	FAM184A	-0.815	0.453	0.246	inactive
12	OR6C4	0.508	-0.0101	0.4	inactive
13	BCL7B	-0.512	-0.812	0.132	inactive
14	MRS2	0.0919	0.0137	0.397	inactive
15	MIA	-0.188	1.36	2.57	inactive
16	GLDN	-0.0846	-0.383	0.0557	inactive
17	NDUFS6	0.242	-0.364	-0.0513	inactive
18	LOC441153 (retired record)	-0.566	-1.17	-1.49	inactive
19	NPY1R	-1.07	-0.926	-0.469	inactive
20	RETNLB	3.59	2.72	3.84	active
21	TAS2R40	2.56	2.2	3.01	active
22	SIKE1	0.605	1.46	0.866	inactive
23	GRHL2	-0.0792	-0.394	-0.428	inactive
24	ALG8	0.576	1.35	0.443	inactive
25	MTURN	-0.67	-0.736	-0.452	inactive
26	CORT	-0.302	-1.21	-1.38	inactive
27	XKR6	2.71	2.54	2.25	active
28	SUDS3	-0.736	-1.21	-0.592	inactive

Targets above whose gene name starts with S or s:
gene symbol	robust z-score, replicate 1	robust z-score, replicate 2	robust z-score, replicate 3	activity call
SIKE1	0.605	1.46	0.866	inactive
SUDS3	-0.736	-1.21	-0.592	inactive
